# In PubChem BioAssay AID1259354 (Paczesny and Yang Labs, IUPUI and University of Michigan, 2018):
# By UniProt entry, the sequences of proteins in these tests, tags left out. Where a name states a change or a piece, a line headed by the entry shows the natural chain unless it says otherwise.
# UniProt Q01638: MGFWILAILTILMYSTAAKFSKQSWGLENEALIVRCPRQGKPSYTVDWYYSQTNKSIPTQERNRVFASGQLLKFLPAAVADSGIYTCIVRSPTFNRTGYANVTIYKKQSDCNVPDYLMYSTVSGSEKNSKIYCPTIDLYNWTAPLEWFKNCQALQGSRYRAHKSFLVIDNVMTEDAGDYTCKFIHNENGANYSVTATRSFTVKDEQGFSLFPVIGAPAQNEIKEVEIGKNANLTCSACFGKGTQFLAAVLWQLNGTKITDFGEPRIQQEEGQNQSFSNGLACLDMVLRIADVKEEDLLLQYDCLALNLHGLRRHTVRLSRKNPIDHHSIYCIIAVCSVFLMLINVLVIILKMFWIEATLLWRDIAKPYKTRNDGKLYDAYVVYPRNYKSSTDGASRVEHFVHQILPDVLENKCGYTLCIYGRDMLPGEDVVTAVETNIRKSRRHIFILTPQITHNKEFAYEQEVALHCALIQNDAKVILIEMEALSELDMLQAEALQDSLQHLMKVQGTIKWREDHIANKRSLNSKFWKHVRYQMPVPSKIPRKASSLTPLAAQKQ
# Screen size: about 78,000 compounds; about 1,800 (2.3%) were called active. Inconclusive means that the source gave no clear call. Such entries were picked first, then a sample of the others. Cut-off read from the data, not from the text of the source: active = inhibition above about 30%; inconclusive = mostly about 10% to 28%; inactive = weaker than that.
# Biological target: Interleukin-1 receptor-like 1 (Homo sapiens) (UniProt Q01638)
# Assay: blocks human ST2 binding to IL-33, primary screen, biochemical, AlphaLISA (AID 1259354)
# Conditions: AlphaLISA ST2-Fc/biotin-IL-33 interaction, 1 h; at 17 µM, stronger effect = higher value
row,Structure (SMILES),inhibition
1,CC(=O)c1ccc(NC(=O)N2C[C@@H]3C[C@H](C2)c2ccc(NC(=O)c4cccs4)c(=O)n2C3)cc1,inconclusive: 15%
2,C=CCC1(CC=C)CCCN1C(=O)C(=O)c1ccccc1,inconclusive: 24%
3,N#CC1=C(N)SC(N)=C(C#N)C1c1ccccc1F,inconclusive: 12%
4,CC(=O)c1c(OC(=O)c2ccccc2Cl)ccc2c(C)cc(=O)oc12,inactive
5,CN1CCN(CCCNC(=O)c2ccc3c(c2)NC(=O)C(N2CCOCC2)S3)CC1 (stereo unspecified),inactive
6,CCN1CC(Cn2ccnc2-c2ccncc2)CC1=O (stereo unspecified),inconclusive: 10%
7,CN1CCCN(Cc2cccc(F)c2)CC1,inactive
8,COc1cc(S(=O)(=O)NCc2ccc3c(c2)OCO3)c(OC)cc1Cl,inactive
9,COc1ccccc1C1(CCN=Cc2ccc(N(C)C)cc2)CCOC(C)(C)C1 (stereo unspecified),inactive
10,OCc1ccc(CN2C[C@H](O)C[C@H]2c2nc(-c3ccc(F)cc3)no2)o1,inconclusive: 19%
11,CC1=C(C(=O)OCC2CCCO2)C(c2cccnc2)C2=C(CC(C)(C)CC2=O)N1 (stereo unspecified),inactive
12,COc1cc(C(=O)N2CCN=C2SCc2ccc(C)cc2)cc(OC)c1OC,inconclusive: 13%
13,Cc1csc(C(C)N(C)C(=O)CC2(c3ccccc3)CC(=O)N(Cc3ccncc3)C2=O)n1 (stereo unspecified),inactive
14,Cc1nc(SCC(=O)Nc2cccc(F)c2)c2c(=O)n(C)c(=O)n(C)c2n1,inactive
15,CCc1nc2c(N3C[C@H]4CC=CC[C@H]4C3)ncnc2o1,inactive
16,COc1ccc(F)c(F)c1CN1CCC2(CCNC(=O)CC2)CC1,inconclusive: 12%
17,COCCN(CC1CCCN(C2Cc3ccccc3C2)C1)C(=O)Cn1nc2ccccc2n1 (stereo unspecified),inactive
18,CCOc1nc(NCCO)nc(N2CCN(c3ccc(OC)cc3)CC2)n1,inconclusive: 24%
19,O=C(Nc1ccc(N2CCOCC2)c(Cl)c1)c1ccc(Cl)c([N+](=O)[O-])c1,inconclusive: 13%
20,CC(=O)Nc1ccc(S(=O)(=O)N2CCSC2C(=O)O)cc1 (stereo unspecified),inconclusive: 10%
21,COc1cccc(OC)c1OCC(O)CN1CCN(c2ccc(F)cc2)CC1 (stereo unspecified),inconclusive: 11%
22,CCCc1ccc2oc(C(=O)NCCc3cccnc3)c(C)c2c1,inactive
23,CCc1noc(C)c1C(=O)NCc1cccnc1N1CCCCCCC1,inconclusive: 11%
24,CN1C[C@@H](NS(=O)(=O)c2cccc3cccnc23)C[C@H]1c1nc(-c2ccc3c(c2)OCO3)no1,inconclusive: 10%
25,Cc1nonc1C(=O)NC(C)c1cnn(-c2cccc3ccccc23)c1C (stereo unspecified),inconclusive: 19%
26,CC(C)CN1C(=O)N(C)C(=O)C12CCN(Cc1nc(-c3ccccc3)cs1)CC2,inconclusive: 19%

# Given bar-delimited: entries from further up
row | Structure (SMILES) | inhibition
5 | CN1CCN(CCCNC(=O)c2ccc3c(c2)NC(=O)C(N2CCOCC2)S3)CC1 (stereo unspecified) | inactive
19 | O=C(Nc1ccc(N2CCOCC2)c(Cl)c1)c1ccc(Cl)c([N+](=O)[O-])c1 | inconclusive: 13%
